The M2OR odorant receptor database
Where a chain is given by its changes, count along the chain named. The list shows a part of the results, in another mix than the full data. Calls are pooled over several reports, among them a noisy single-well screen. Some of the results follow.

Chains of the proteins cited; added tags and fusions are not shown. A line that says so, or that is headed by a name, gives the form on record, which may keep a tag or linker.
OR1E2, as listed by the source: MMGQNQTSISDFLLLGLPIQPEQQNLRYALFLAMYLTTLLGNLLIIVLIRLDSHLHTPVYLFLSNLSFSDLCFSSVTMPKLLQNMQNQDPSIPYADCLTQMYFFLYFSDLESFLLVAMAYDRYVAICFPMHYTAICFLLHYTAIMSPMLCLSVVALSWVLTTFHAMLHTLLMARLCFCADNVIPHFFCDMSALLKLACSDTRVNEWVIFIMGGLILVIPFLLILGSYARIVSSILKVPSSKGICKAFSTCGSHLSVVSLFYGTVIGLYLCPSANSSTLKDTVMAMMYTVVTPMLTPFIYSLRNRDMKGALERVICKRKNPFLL

Legend:
Conditions in all cases: stereoisomer not certain
[1] = biological target: T1, OR1D5 (Homo sapiens) (UniProt P58170)
T1 sequence (whole entry): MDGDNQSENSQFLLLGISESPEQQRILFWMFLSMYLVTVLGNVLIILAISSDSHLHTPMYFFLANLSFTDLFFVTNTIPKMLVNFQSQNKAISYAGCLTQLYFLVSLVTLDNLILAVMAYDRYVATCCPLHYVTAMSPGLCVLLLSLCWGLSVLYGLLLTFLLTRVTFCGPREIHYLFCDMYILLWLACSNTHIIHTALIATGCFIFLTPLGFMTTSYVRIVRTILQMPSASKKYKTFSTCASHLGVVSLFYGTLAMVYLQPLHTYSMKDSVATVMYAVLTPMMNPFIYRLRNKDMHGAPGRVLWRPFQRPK
Outline: (§1)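 Values were gathered from published papers (main text and supplementary material), with extra details requested from the original authors when needed, and checked for typos and inconsistencies. Each receptor–molecule pair is called responsive (active) if the original authors judged the measured signal statistically different from baseline, and non-responsive (inactive) otherwise. Assay methods varied by source, often transient mammalian cell-line luciferase assays. Recorded details include cell line, G-protein, co-transfected protein and tags.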

[2] = test system: T2, OR1D5
T2 sequence (whole entry): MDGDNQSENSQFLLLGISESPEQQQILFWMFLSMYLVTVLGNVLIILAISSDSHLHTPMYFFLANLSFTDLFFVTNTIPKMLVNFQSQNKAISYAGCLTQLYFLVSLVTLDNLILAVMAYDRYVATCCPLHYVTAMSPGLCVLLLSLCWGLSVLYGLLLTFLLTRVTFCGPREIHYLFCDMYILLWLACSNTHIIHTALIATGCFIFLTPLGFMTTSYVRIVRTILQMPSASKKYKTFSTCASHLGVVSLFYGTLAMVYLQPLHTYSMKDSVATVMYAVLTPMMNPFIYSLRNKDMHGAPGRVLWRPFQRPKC
Outline: as §1

[3] = test system: T3, OR1E1
T3 sequence (whole entry): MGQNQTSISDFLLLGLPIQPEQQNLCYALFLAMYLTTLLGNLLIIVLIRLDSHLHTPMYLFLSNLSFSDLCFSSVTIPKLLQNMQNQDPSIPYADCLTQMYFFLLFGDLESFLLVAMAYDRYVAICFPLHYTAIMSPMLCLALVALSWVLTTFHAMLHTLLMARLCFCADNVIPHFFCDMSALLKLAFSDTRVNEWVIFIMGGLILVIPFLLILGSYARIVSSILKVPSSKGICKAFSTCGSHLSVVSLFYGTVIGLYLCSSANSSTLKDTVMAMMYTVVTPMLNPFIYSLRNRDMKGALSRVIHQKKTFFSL
Outline: as §1

[4] = test system: T4, OR1E1; remark: listed apart in the source
T4 sequence (whole entry): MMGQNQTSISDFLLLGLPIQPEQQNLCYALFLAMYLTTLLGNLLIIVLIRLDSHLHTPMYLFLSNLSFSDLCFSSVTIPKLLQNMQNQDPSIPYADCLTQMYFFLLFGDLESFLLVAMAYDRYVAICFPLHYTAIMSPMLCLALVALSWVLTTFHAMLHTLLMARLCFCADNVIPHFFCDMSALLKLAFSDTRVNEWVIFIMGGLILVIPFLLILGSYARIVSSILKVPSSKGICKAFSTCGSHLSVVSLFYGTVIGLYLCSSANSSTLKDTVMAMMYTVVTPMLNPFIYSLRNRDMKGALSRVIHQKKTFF
Outline: as §1

[5] = biological target: T5, OR1E2 (Homo sapiens) (UniProt P47887)
T5 sequence (whole entry): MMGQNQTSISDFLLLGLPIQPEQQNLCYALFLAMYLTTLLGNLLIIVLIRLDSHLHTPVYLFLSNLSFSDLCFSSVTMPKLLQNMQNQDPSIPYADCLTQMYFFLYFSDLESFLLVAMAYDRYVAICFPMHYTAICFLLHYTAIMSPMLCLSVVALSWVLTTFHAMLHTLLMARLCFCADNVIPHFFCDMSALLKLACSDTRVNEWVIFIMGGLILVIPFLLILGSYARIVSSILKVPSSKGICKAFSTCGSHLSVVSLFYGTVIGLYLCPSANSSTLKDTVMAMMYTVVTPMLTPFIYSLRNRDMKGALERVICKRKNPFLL
Outline: as §1

[6] = test system: T6, OR1E2
T6 sequence (whole entry): T5 sequence (whole entry) with C27R
Outline: as §1

[7] = test system: T7, OR1F1
T7 sequence (whole entry): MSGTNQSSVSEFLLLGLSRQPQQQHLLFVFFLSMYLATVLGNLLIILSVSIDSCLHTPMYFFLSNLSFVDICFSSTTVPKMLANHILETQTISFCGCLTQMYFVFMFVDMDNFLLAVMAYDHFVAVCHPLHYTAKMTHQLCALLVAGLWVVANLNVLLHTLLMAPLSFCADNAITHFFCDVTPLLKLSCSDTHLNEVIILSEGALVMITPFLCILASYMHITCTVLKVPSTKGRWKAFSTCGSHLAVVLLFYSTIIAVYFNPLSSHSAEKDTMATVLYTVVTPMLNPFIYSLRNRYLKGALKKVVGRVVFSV
Outline: as §1

[8] = test system: T8, OR1FC
T8 sequence (whole entry): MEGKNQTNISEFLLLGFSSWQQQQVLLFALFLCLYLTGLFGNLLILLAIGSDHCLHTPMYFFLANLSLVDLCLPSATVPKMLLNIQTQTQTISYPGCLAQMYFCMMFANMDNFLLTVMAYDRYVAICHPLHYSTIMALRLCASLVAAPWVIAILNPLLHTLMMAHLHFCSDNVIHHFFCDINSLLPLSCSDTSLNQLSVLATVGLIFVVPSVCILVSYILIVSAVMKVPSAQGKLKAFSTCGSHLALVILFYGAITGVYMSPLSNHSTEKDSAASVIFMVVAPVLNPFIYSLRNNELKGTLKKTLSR
Outline: as §1

[9] = biological target: T9, OR1G1 (Homo sapiens) (UniProt P47890)
T9 sequence (whole entry): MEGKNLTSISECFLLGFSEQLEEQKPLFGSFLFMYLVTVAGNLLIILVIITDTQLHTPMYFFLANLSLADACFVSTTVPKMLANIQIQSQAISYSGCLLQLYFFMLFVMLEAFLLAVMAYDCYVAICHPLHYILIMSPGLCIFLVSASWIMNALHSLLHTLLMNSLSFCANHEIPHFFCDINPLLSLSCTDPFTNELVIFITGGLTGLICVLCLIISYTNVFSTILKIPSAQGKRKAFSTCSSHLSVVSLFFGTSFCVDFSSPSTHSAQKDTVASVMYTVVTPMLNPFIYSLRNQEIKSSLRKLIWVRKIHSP
Outline: as §1

[10] = test system: T10, OR1I1
T10 sequence (whole entry): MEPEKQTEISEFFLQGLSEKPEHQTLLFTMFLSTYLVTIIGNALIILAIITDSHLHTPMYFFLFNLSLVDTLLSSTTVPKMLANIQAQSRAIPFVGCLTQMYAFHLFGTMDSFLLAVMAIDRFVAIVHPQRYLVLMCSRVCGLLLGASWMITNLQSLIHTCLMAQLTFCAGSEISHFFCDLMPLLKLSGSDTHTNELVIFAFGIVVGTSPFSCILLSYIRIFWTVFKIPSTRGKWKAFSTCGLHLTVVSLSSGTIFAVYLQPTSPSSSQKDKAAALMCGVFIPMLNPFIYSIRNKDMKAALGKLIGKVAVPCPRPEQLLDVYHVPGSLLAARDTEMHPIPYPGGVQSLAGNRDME
Outline: as §1

[11] = biological target: T11, OR1J1 (Homo sapiens) (UniProt Q8NGS3)
T11 sequence (whole entry): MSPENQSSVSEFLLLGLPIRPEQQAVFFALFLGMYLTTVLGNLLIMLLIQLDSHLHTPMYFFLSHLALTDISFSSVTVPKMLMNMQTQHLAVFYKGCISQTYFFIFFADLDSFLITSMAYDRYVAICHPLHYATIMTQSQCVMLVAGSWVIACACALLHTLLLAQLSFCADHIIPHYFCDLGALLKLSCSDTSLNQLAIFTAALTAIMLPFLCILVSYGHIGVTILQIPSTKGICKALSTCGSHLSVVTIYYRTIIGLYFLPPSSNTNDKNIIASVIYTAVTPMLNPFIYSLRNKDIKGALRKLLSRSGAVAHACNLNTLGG
Outline: as §1

[12] = biological target: T12, OR1J2 (Homo sapiens) (UniProt Q8NGS2)
T12 sequence (whole entry): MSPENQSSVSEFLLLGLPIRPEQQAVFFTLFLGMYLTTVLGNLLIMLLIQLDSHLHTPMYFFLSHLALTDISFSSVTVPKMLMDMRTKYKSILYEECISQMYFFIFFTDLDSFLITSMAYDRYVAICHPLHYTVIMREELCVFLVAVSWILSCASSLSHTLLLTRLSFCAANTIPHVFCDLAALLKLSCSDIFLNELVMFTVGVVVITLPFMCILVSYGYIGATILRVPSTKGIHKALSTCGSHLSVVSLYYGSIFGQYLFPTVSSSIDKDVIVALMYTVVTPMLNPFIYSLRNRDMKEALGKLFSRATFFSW
Outline: as §1

[13] = biological target: T13, OR1J4 (Homo sapiens) (UniProt Q8NGS1)
T13 sequence (whole entry): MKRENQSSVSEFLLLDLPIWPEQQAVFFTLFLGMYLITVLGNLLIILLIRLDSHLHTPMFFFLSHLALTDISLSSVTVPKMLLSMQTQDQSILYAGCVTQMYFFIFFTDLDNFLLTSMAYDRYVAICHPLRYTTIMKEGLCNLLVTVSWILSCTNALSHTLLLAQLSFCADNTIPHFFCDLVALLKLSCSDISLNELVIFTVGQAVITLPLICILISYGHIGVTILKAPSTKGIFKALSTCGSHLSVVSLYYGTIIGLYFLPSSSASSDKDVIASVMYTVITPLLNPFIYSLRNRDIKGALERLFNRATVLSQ
Outline: as §1

[14] = biological target: T14, OR1K1 (Homo sapiens) (UniProt Q8NGR3)
T14 sequence (whole entry): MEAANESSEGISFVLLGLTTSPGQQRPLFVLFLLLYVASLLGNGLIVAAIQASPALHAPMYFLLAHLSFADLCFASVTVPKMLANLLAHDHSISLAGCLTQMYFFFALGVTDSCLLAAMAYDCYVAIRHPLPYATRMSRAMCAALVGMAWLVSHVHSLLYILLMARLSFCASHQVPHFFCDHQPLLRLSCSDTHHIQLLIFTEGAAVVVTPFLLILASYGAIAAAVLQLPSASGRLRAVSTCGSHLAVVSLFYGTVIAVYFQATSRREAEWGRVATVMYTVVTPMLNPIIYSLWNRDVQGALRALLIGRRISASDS
Outline: as §1

SMILES | odorant receptor agonist call [1] | odorant receptor agonist call [2] | odorant receptor agonist call [3] | odorant receptor agonist call [4] | odorant receptor agonist call [5] | odorant receptor agonist call [6] | odorant receptor agonist call [7] | odorant receptor agonist call [8] | odorant receptor agonist call [9] | odorant receptor agonist call [10] | odorant receptor agonist call [11] | odorant receptor agonist call [12] | odorant receptor agonist call [13] | odorant receptor agonist call [14]
CCCCCCCOC(C)=O | inactive | inactive | inactive | inactive | inactive | inactive | inactive | inactive | inactive | inactive | inactive | inactive | inactive | inactive
O=CCc1ccccc1 | inactive | active | inactive | inactive | inactive | inactive | inactive | active | inactive | inactive | active | inactive | inactive | inactive
COc1cc(C)ccc1O | inactive | inactive | inactive | inactive | inactive | inactive | inactive | inactive | inactive | inactive | inactive | inactive | inactive | inactive
CCCCCC(=O)O | inactive | inactive | inactive | inactive | inactive | inactive | inactive | inactive | inactive | inactive | inactive | inactive | inactive | inactive
c1cnccn1 | inactive | inactive | inactive | inactive | inactive | inactive | inactive | inactive | active | inactive | inactive | inactive | inactive | inactive
CC=Cc1ccc(O)c(OC)c1 | inactive | active | active | inactive | inactive | inactive | inactive | active | inactive | inactive | active | inactive | inactive | inactive
c1ccc(Oc2ccccc2)cc1 | inactive | inactive | inactive | inactive | inactive | inactive | inactive | inactive | inactive | inactive | inactive | inactive | inactive | inactive
CCCCO | inactive | inactive | inactive | inactive | inactive | inactive | inactive | inactive | inactive | inactive | inactive | inactive | active | inactive
O=C1CCCCCCCCCCCC(=O)OCCO1 | active | inactive | inactive | inactive | inactive | inactive | inactive | inactive | inactive | inactive | inactive | inactive | inactive | inactive
CCC1(O)C2(C)CCC(C2)C1(C)C (stereo not drawn) | inactive | inactive | inactive | inactive | inactive | inactive | inactive | inactive | inactive | inactive | inactive | inactive | inactive | inactive
CC(C)C=O | inactive | inactive | inactive | inactive | inactive | inactive | inactive | inactive | inactive | inactive | inactive | inactive | inactive | inactive
CC12CCC(C1)C(C)(C)C2=O (stereo not drawn) | inactive | inactive | inactive | inactive | inactive | inactive | inactive | inactive | inactive | inactive | inactive | inactive | inactive | inactive
